In all, about 360,000 compounds went through this assay and about 7,500 (2.1%) were called active. The shares of active, inactive and inconclusive entries below differ from those in the screen. The call rests on the fitted dose curve; in most records, active means well fitted inhibition curve with a large enough effect; inconclusive means small, poorly fitted or top-dose-only effect, or effect the other way; inactive means flat fitted curve, though single readings scatter. Potencies of inconclusive entries are doubtful fits and often do not repeat.
test: Nrf2 qHTS screen for inhibitors; conditions: A549 ARE-Fluc reporter, luciferase luminescence, 18-24 h; series mostly up to 46 µM; further: nearly all actives have a fitted effect of over 60% in size
Outline: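 In this cell-based qHTS, ARE-driven firefly luciferase in A549 cells reports Nrf2 activity; the luminescent signal after BugLite lysis is the measured value, with a prior CellTiter-Fluor read for cell health.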
Potency means the concentration at half of the fitted maximal effect.

Row | SMILES | Potency
1 | O=C(CSc1ncc2c(n1)-c1ccccc1N(Cc1ccc(Cl)cc1)S2(=O)=O)c1ccccc1 | inconclusive: 25.9 µM [activator, single point]
2 | CCC(C)Nc1nc2c(c(=O)n(C)c(=O)n2C)n1Cc1ccc(F)cc1 (stereo not given) | inactive
3 | Cc1occc1C(=O)NCc1ccccc1F | inconclusive: 6.51 µM [activator, single point]
4 | COc1ccc(C2/C=C\CN(C(=O)OCC3c4ccccc4-c4ccccc43)CC(=O)N2Cc2cccc(F)c2)cc1 (stereo not given) | inconclusive: 13 µM [falling, partial curve, poor fit]
5 | COCCCNC(=O)/C=C/c1ccc(OCc2c(F)cccc2Cl)cc1 | inactive
6 | CCOc1ccc(NC(=O)CCc2nnc3n(C)c(=O)c4sccc4n23)cc1 | inconclusive: 29.1 µM [falling, single point]
7 | CC(C)(C)C(=O)Nc1nnc(SCc2ccc(F)cc2)s1 | inconclusive: 9.2 µM [activator, partial curve, poor fit]
8 | COc1ccc(OCc2cc(C(=O)N(C)C3CCOCC3)no2)c2ccccc12 | inconclusive: 2.31 µM [activator, partial curve, poor fit]
9 | CN(C)c1cc[n+](CC(=O)N2c3ccccc3Sc3ccccc32)cc1 | inconclusive: 20.6 µM [falling, single point]
10 | CCCOC(=O)c1c(NC(=O)C2C3C=CC(C3)C2C(=O)O)sc2c1CCC(C)C2 (stereo not given) | inconclusive: 29.1 µM [falling, partial curve, poor fit]
11 | CN(CC(=O)NCCc1ccc(S(N)(=O)=O)cc1)Cc1ccc(Cl)cc1Cl | active: 18.4 µM
12 | CN(CC(=O)N1CCc2[nH]c3ccc(F)cc3c2C1)CC1OCCO1 | inconclusive: 6.51 µM [falling, single point]
13 | COc1ccc([C@H]2CC(=O)C=C(c3ccccc3)C2)cc1 | inconclusive: 32.6 µM [falling, single point]
14 | Cc1ccc(NC(=O)Cn2c(=O)n(CCCCC(=O)NCc3ccc4c(c3)OCO4)c(=O)c3ccccc32)cc1 | inactive
15 | C/C(=N\NC(=O)c1cc(C)oc1C)c1ccc2ccccc2c1 | inactive
16 | O=C(c1ccncc1)N1CCCC(N2CCN(c3cccc(C(F)(F)F)c3)CC2)C1 (stereo not given) | inconclusive: 20.6 µM [falling, single point]
17 | CCOC(=O)CC1(NC(=O)c2cc(COc3cccc(OC)c3)on2)CCCCC1 | inconclusive: 29.1 µM [falling, single point]
18 | Cc1cccc(NCCC(=O)c2ccc(Br)cc2)c1 | inconclusive: 29.1 µM [activator, single point]
19 | CCOc1ccc(-c2cc(C(=O)O)c3ccccc3n2)c(OCC)c1 | inconclusive: 11.6 µM [activator, partial curve]
20 | CCC(C)(C)NC(=O)C(c1ccc(C)cc1)N(Cc1cccnc1)C(=O)c1csnn1 (stereo not given) | inactive
21 | OCCNCc1cc(Br)ccc1OCc1ccc(Cl)cc1Cl | inactive
22 | Cc1ccc(Cl)cc1Nc1nn2c(=O)c3ccc(C(=O)NC(C)c4ccccc4)cc3nc2s1 (stereo not given) | inactive

An excerpt of these results, as comma-separated lines.
Row,SMILES,Potency
9,CN(C)c1cc[n+](CC(=O)N2c3ccccc3Sc3ccccc32)cc1,"inconclusive: 20.6 µM [falling, single point]"
10,CCCOC(=O)c1c(NC(=O)C2C3C=CC(C3)C2C(=O)O)sc2c1CCC(C)C2 (stereo not given),"inconclusive: 29.1 µM [falling, partial curve, poor fit]"
11,CN(CC(=O)NCCc1ccc(S(N)(=O)=O)cc1)Cc1ccc(Cl)cc1Cl,active: 18.4 µM
12,CN(CC(=O)N1CCc2[nH]c3ccc(F)cc3c2C1)CC1OCCO1,"inconclusive: 6.51 µM [falling, single point]"
13,COc1ccc([C@H]2CC(=O)C=C(c3ccccc3)C2)cc1,"inconclusive: 32.6 µM [falling, single point]"
14,Cc1ccc(NC(=O)Cn2c(=O)n(CCCCC(=O)NCc3ccc4c(c3)OCO4)c(=O)c3ccccc32)cc1,inactive
15,C/C(=N\NC(=O)c1cc(C)oc1C)c1ccc2ccccc2c1,inactive
16,O=C(c1ccncc1)N1CCCC(N2CCN(c3cccc(C(F)(F)F)c3)CC2)C1 (stereo not given),"inconclusive: 20.6 µM [falling, single point]"
17,CCOC(=O)CC1(NC(=O)c2cc(COc3cccc(OC)c3)on2)CCCCC1,"inconclusive: 29.1 µM [falling, single point]"
18,Cc1cccc(NCCC(=O)c2ccc(Br)cc2)c1,"inconclusive: 29.1 µM [activator, single point]"
19,CCOc1ccc(-c2cc(C(=O)O)c3ccccc3n2)c(OCC)c1,"inconclusive: 11.6 µM [activator, partial curve]"
20,CCC(C)(C)NC(=O)C(c1ccc(C)cc1)N(Cc1cccnc1)C(=O)c1csnn1 (stereo not given),inactive
21,OCCNCc1cc(Br)ccc1OCc1ccc(Cl)cc1Cl,inactive
22,Cc1ccc(Cl)cc1Nc1nn2c(=O)c3ccc(C(=O)NC(C)c4ccccc4)cc3nc2s1 (stereo not given),inactive

More entries

Row | SMILES | Potency
23 | O=C(Nc1ccc(Cl)cc1[N+](=O)[O-])c1ccc2c(c1)OCCO2 | inconclusive: 2.06 µM [activator, partial curve, poor fit]
24 | COc1cccc(NC(=O)CN(C)C(=O)c2cc3ccccc3cc2OC)c1 | inconclusive: 8.2 µM [falling, partial curve]
25 | Cc1cccc(CN2CCN(C(c3ccccc3)c3ccc(Cl)cc3)CC2)c1 (stereo not given) | inconclusive: 6.51 µM [activator, partial curve, poor fit]
26 | Cc1ccc(Cl)cc1N1CCN(C(=O)CCS(=O)(=O)c2ccc3c(c2)oc(=O)n3C)CC1 | inconclusive: 32.6 µM [falling, single point]
27 | Cn1nc(C(=O)NCc2ccccc2)c2c1-c1ccccc1S(=O)(=O)C2 | inconclusive: 18.4 µM [falling, single point]
28 | N#Cc1nc(-c2ccccc2F)oc1NCc1ccccc1 | inconclusive: 0.517 µM [activator, full curve, poor fit]
29 | CCOc1ccc(/C=N/N(C)c2ccccc2)cc1OC | inconclusive: 5.17 µM [activator, full curve, poor fit]
30 | Cc1nc2nc(SCc3nc4ccccc4[nH]3)[nH]c2cc1Br | inconclusive: 18.4 µM [activator, single point]
31 | CCCCCCCC(=O)Oc1ccc(C(=O)Nc2cc(C)on2)cc1 | inconclusive: 29.1 µM [activator, single point]
32 | COc1cc(C(=O)N/N=C/c2ccc(OC(=O)c3ccccc3Cl)cc2)ccc1O | inconclusive: 3.66 µM [falling, partial curve, poor fit]
33 | Cc1cc(C)cc(OCC(=O)Nc2cccc(-c3nnc(-c4ccco4)o3)c2)c1 | inconclusive: 29.1 µM [falling, single point]
34 | Cc1ccc(N(C(=O)C(F)(F)F)C(C(=O)NC2CCCCC2)c2ccncc2)cc1C (stereo not given) | inconclusive: 0.0326 µM [falling, full curve, poor fit]
35 | O=C(Cn1c(O)c(/C=C2\C=Nc3ccc(Br)cc32)sc1=O)N1CCCC1 | inconclusive: 18.4 µM [falling, partial curve, poor fit]
36 | CCCNS(=O)(=O)c1cccc(C(=O)NC2CCCc3ccccc32)c1 (stereo not given) | active: 16.4 µM
37 | O=C(O)c1cccc(N/N=C/c2cccc3ccccc23)c1 | inconclusive: 11.6 µM [activator, partial curve]
38 | CC1=C(C)CC2(SC1)C(=O)N(c1ccccc1)N=C2N (stereo not given) | inconclusive: 20.6 µM [activator, single point]
39 | O=C(NNc1c2ccccc2nc2ccccc12)c1cccc(O)c1 | inactive
40 | O=C(CCc1nnc(Cc2cccc(C(F)(F)F)c2)o1)NCC(F)(F)F | inconclusive: 25.9 µM [activator, single point]
41 | COC(=O)c1ccc2nc(C)cc(Nc3cccc(Cl)c3C)c2c1 | inconclusive: 0.326 µM [falling, full curve, poor fit]
42 | COCC(=O)Nc1c(C(=O)Nc2ccc(C)cc2)oc2ccccc12 | inconclusive: 10.3 µM [activator, partial curve, poor fit]
43 | O=C(CCc1nc2ccccc2c(=O)[nH]1)Nc1cccc(S(=O)(=O)N2CCCCC2)c1 | inconclusive: 23.1 µM [falling, single point]
44 | Cc1ccc2oc(-c3ccc(C)c(NC(=O)c4ccc(-c5ccccc5[N+](=O)[O-])o4)c3)nc2c1 | inconclusive: 10.3 µM [activator, partial curve]

Row | SMILES | Potency
45 | c1ccc(-c2csc(Nc3ccc4c(c3)OCCO4)n2)cc1 | inconclusive: 1.03 µM [activator, full curve, poor fit]
46 | CSc1ccccc1-c1nc(-c2ccncc2)no1 | inconclusive: 10.3 µM [activator, partial curve]
47 | Cc1cccc(C(=O)OCC(=O)c2c(N)n(CC(C)C)c(=O)n(C)c2=O)c1O | active: 18.4 µM
48 | CC(C)(C)c1ccc(C(=O)NCC(=O)N2CCCCCC2)cc1 | inactive
49 | O=C(NCCc1ccccc1)c1cnc2ccccn2c1=O | inconclusive: 1.46 µM [activator, full curve]
50 | Cc1ccc(C(C)C)c(OCC(=O)NNC(=O)Cn2[nH]c(=O)c3ccccc3c2=O)c1 | inactive
51 | O=C(Cc1ccccc1)Nc1ccc(N2CCOCC2)cc1 | inconclusive: 8.2 µM [activator, partial curve, poor fit]
52 | Cc1ccnc(NC(=O)c2cccc(OC(F)F)c2)n1 | inconclusive: 4.11 µM [activator, full curve]
53 | Cc1ccc(-c2cn3cccnc3n2)cc1 | inconclusive: 3.66 µM [activator, full curve]
54 | Cc1ccc(Nc2ncnc3c2cnn3C)cc1 | inconclusive: 20.6 µM [activator, single point]
55 | Cc1ccc2oc(C(=O)Nc3nonc3C)c(C)c2c1 | inconclusive: 1.3 µM [activator, full curve]
56 | Fc1ccccc1-c1cc2ncccc2cn1 | inconclusive: 11.6 µM [activator, partial curve]
57 | Cc1nn(Cc2ccc(Cl)c(Cl)c2)c(C)c1NC(=O)c1cn(-c2ccccc2)nc1-c1ccccc1 | inconclusive: 20.6 µM [falling, single point]
58 | O=C(OCc1c(F)cccc1Cl)c1cnc(Cl)c(Cl)c1 | inconclusive: 9.2 µM [falling, partial curve, poor fit]
59 | O=S(=O)(N1CCCCC1)n1c(Cc2ccccc2)nc2ccccc21 | inconclusive: 23.1 µM [falling, single point]
60 | COc1ccc(CCNC(=O)c2ccc(N(C)S(=O)(=O)c3ccc(C)cc3)cc2)cc1 | inconclusive: 29.1 µM [falling, single point]
61 | COc1ccc(/C=C2\CC/C(=C\c3ccc(OC)cc3OC)C2=O)c(OC)c1 | inactive
62 | Cn1c(SCc2ccccn2)nnc1-c1ccccc1 | inconclusive: 18.4 µM [activator, single point]
63 | CN(Cc1ccccc1)C(=O)c1ccc(NC(=O)Cc2ccc(NC(=O)C3CCN(C(=O)CCc4ccccc4)CC3)cc2)cc1 | inconclusive: 2.91 µM [falling, full curve, poor fit]
64 | CCOc1ccccc1CNC(=O)c1oc2ccc3c(c2c1C)C(=O)CC(C)(C)O3 | inconclusive: 32.6 µM [falling, single point]
65 | O=c1c2sc3ccccc3c2n(Cc2ccc(F)cc2Cl)c(=O)n1Cc1ccccc1 | inactive

— PubChem BioAssay AID504444 (National Center for Advancing Translational Sciences (NCATS), 2011)
